The results in this text go back to the supplement of paper PMC4604168 (melanoma cell lines).

Some of the results follow. Single values are uncertain, as repeats are few or missing.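 Imaging used 1,536-well plates; nuclei positive for cleaved PARP by antibody were divided by total DNA-stained nuclei to yield the apoptosis fraction. Doses for screening kept most cells viable, and cell lines differ markedly in resting and induced cleaved-PARP levels.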

Test systems include MZ2-MEL; MeWo; RPMI7951; RVH-421; SkMel28; SkMel2; SkMel30; SkMel5; UACC257; UACC62; WM115; WM1716; WM1745; WM3526; WM3619; WM451Lu.
What all share (assay): cleaved PARP positive nuclei fraction relative to DMSO control; melanoma cells; higher = more apoptosis
What all share (conditions): library dose: low library concentration; 72 h

Consider `O=C(Nc1cc(C(F)(F)F)cc(C(F)(F)F)c1)c1cc(Cl)ccc1O` + Cc1cc(SCc2sc(-c3ccc(C(F)(F)F)c(F)c3)nc2C)ccc1OCC(=O)O [GW0742] (first compound 0.016 µM, partner dose 2 µM), for which the “cleaved PARP positive nuclei fraction” value with MZ2-MEL was determined as 3650%; in the experiment with MeWo, 97.1%; with RPMI7951, 178%; in the experiment with RVH-421, 129%; in the experiment on SkMel28 it was 70.9%; in the experiment on SkMel2, 56%. The “cleaved PARP positive nuclei fraction” value in the experiment on SkMel30 came to 30.8%; in the experiment with SkMel5, 33%; in the experiment on UACC257 it was 145%; in the experiment on UACC62, 840%; in the experiment with WM115, 164%; in the experiment on WM1716, 94.3%. The “cleaved PARP positive nuclei fraction” value came out at 92.3% with WM1745, 78.3% with WM3526, 196% with WM3619 and 113% with WM451Lu.
As to `CC(=O)O[C@@]12CO[C@@H]1C[C@H](O)[C@@]1(C)C(=O)[C@H](O)C3=C(C)[C@@H](OC(=O)[C@H](O)[C@@H](NC(=O)OC(C)(C)C)c4ccccc4)C[C@@](O)([C@@H](OC(=O)c4ccccc4)[C@H]21)C3(C)C` [Docetaxel] + C/C(O)=C(\C#N)C(=O)Nc1cc(Br)ccc1Br [LFM-A13] (first compound 0.0001 µM, partner dose 2 µM), the “cleaved PARP positive nuclei fraction” value with MZ2-MEL is 370%; in the experiment with MeWo, 653%; with RPMI7951, 181%; in the experiment on RVH-421, 48.6%; in the experiment on SkMel28 it was 720%; with SkMel2, 857%. Moreover, the “cleaved PARP positive nuclei fraction” value with SkMel30 is 278%; with SkMel5 it was 101%; in the experiment with UACC257, 1020%; in the experiment on UACC62, 912%; in the experiment on WM115, 479%; in the experiment with WM1716 it was 373%. In addition, the “cleaved PARP positive nuclei fraction” value was determined as 194% in the experiment on WM1745, 140% with WM3526, 140% in the experiment on WM3619 and 144% in the experiment on WM451Lu.
As to `N.N.[Cl][Pt][Cl]` [cisplatin] + COc1cc2c(Oc3ccc4[nH]c(C)cc4c3F)ncnc2cc1OCCCN1CCCC1 [cediranib] (first compound 1.6 µM, partner dose 0.4 µM), the “cleaved PARP positive nuclei fraction” value was determined as 47% in the experiment with MZ2-MEL; 56.5% with MeWo; 147% in the experiment on RPMI7951; 95% with RVH-421; 108% in the experiment on SkMel28; 176% in the experiment with SkMel2. The “cleaved PARP positive nuclei fraction” value in the experiment with SkMel30 worked out at 130%; in the experiment with SkMel5 it was 79.3%; in the experiment with UACC257 it was 70.9%; with UACC62, 41%; with WM115, 84%; in the experiment with WM1716 it was 128%. Besides, the “cleaved PARP positive nuclei fraction” value in the experiment on WM1745 was 158%; in the experiment on WM3526 it was 41%; in the experiment with WM3619 it was 82.8%; with WM451Lu, 29.9%.
In the case of `Cn1cc(C2=C(c3cn(C4CCN(Cc5ccccn5)CC4)c4ccccc34)C(=O)NC2=O)c2ccccc21` [Enzastaurin] + Cc1ccc(NC(=O)c2cccc(N(C)C)c2)cc1NC(=O)c1ccc(O)cc1 [ZM336372] (first compound 0.8 µM, partner dose 2 µM), the “cleaved PARP positive nuclei fraction” value with MZ2-MEL was found to be 69.7%; in the experiment on MeWo, 108%; with RPMI7951, 49.3%; in the experiment with RVH-421, 101%; in the experiment on SkMel28 it was 61.1%; in the experiment with SkMel2, 86.4%. For the same compound, the “cleaved PARP positive nuclei fraction” value is 144% in the experiment with SkMel30; 221% in the experiment on SkMel5; 69.3% in the experiment with UACC257; 255% with UACC62; 105% with WM115; 127% in the experiment on WM1716. For the same compound, the “cleaved PARP positive nuclei fraction” value was found to be 309% in the experiment with WM1745, 67.3% in the experiment on WM3526, 88.3% in the experiment on WM3619 and 189% in the experiment with WM451Lu.
As to `O=C(O)c1ccc2c(c1)nc(Nc1cccc(Cl)c1)c1ccncc12` + Cc1cc(SCc2sc(-c3ccc(C(F)(F)F)c(F)c3)nc2C)ccc1OCC(=O)O [GW0742] (first compound 0.4 µM, partner dose 2 µM), the “cleaved PARP positive nuclei fraction” value with MZ2-MEL worked out at 37%; in the experiment on MeWo, 83.6%; with RPMI7951, 131%; in the experiment with RVH-421, 121%; in the experiment with SkMel28, 27%; in the experiment on SkMel2, 111%. Besides, the “cleaved PARP positive nuclei fraction” value in the experiment with SkMel30 is 112%; with SkMel5, 192%; in the experiment on UACC257, 85%; with UACC62, 115%; with WM115 it was 88%; in the experiment on WM1716, 213%. Besides, the “cleaved PARP positive nuclei fraction” value with WM1745 stood at 94.2%; in the experiment on WM3526, 87.5%; in the experiment with WM3619, 93.3%; with WM451Lu it was 125%.
For `Cn1sc(=O)n(Cc2ccccc2)c1=O` + C/C(O)=C(\C#N)C(=O)Nc1cc(Br)ccc1Br [LFM-A13] (first compound 0.4 µM, partner dose 2 µM), the “cleaved PARP positive nuclei fraction” value was 99.2% with MZ2-MEL; 95.7% with MeWo; 72.4% with RPMI7951; 125% with RVH-421; 86.6% in the experiment with SkMel28; 117% in the experiment on SkMel2. The “cleaved PARP positive nuclei fraction” value in the experiment on SkMel30 amounted to 163%; with SkMel5 it was 40.3%; in the experiment on UACC257 it was 105%; with UACC62 it was 72.1%; in the experiment with WM115, 121%; in the experiment on WM1716 it was 33.4%. Further, the “cleaved PARP positive nuclei fraction” value is 77.4% with WM1745, 36.7% in the experiment on WM3526, 158% with WM3619 and 85.2% in the experiment on WM451Lu.
As for `O=c1[nH]nc(Sc2ncc([N+](=O)[O-])s2)n1-c1ccc2c(c1)OCCO2` + O=C(Oc1ccc([N+](=O)[O-])cc1)N1CCC(C(O)(c2ccc3c(c2)OCO3)c2ccc3c(c2)OCO3)CC1 [JZL184] (first compound 0.2 µM, partner dose 1 µM), the “cleaved PARP positive nuclei fraction” value in the experiment with MZ2-MEL worked out at 125%; in the experiment on MeWo it was 50.5%; in the experiment with RPMI7951, 111%; in the experiment on RVH-421, 50.3%; with SkMel28, 138%; with SkMel2, 136%. The “cleaved PARP positive nuclei fraction” value in the experiment with SkMel30 is 28.1%; with SkMel5, 75.1%; with UACC257, 99.3%; with UACC62, 123%; with WM115, 244%; in the experiment with WM1716, 131%. Moreover, the “cleaved PARP positive nuclei fraction” value in the experiment on WM1745 came out at 93.7%; in the experiment with WM3526, 357%; in the experiment with WM3619 it was 87%; with WM451Lu, 44.5%.
In the case of `CC(=O)c1c(C)c2cnc(Nc3ccc(N4CCNCC4)cn3)nc2n(C2CCCC2)c1=O` [palbociclib] + C/C(O)=C(\C#N)C(=O)Nc1cc(Br)ccc1Br [LFM-A13] (first compound 0.04 µM, partner dose 2 µM), the “cleaved PARP positive nuclei fraction” value was found to be 32.8% with MZ2-MEL; 103% in the experiment on MeWo; 57.1% in the experiment on RPMI7951; 113% in the experiment on RVH-421; 119% with SkMel28; 59% in the experiment on SkMel2. The “cleaved PARP positive nuclei fraction” value is 103% in the experiment with SkMel30; 108% with SkMel5; 220% in the experiment with UACC257; 150% in the experiment with UACC62; 50.7% with WM115; 194% in the experiment with WM1716. For the same compound, the “cleaved PARP positive nuclei fraction” value is 101% with WM1745, 116% with WM3526, 132% with WM3619 and 211% in the experiment on WM451Lu.
For the compound `Cn1c(=O)n(-c2ccc(C(C)(C)C#N)cc2)c2c3cc(-c4cnc5ccccc5c4)ccc3ncc21` + O=C(Oc1ccc([N+](=O)[O-])cc1)N1CCC(C(O)(c2ccc3c(c2)OCO3)c2ccc3c(c2)OCO3)CC1 [JZL184] (first compound 0.004 µM, partner dose 1 µM), the “cleaved PARP positive nuclei fraction” value in the experiment on MZ2-MEL was 50.3%; with MeWo it was 81.7%; in the experiment on RPMI7951 it was 24.4%; in the experiment with RVH-421, 54.6%; in the experiment with SkMel28, 215%; with SkMel2 it was 94.8%. The “cleaved PARP positive nuclei fraction” value was determined as 511% in the experiment on SkMel30; 74.1% in the experiment with SkMel5; 77.1% in the experiment with UACC257; 218% in the experiment on UACC62; 143% in the experiment on WM115; 118% with WM1716. For the same compound, the “cleaved PARP positive nuclei fraction” value with WM1745 was 93.8%; in the experiment on WM3526 it was 85%; in the experiment with WM3619, 84.7%; in the experiment on WM451Lu, 72.4%.
